Results reported in the supplement of paper PMC10849652.
The other results are listed elsewhere or left out.

Sequences of proteins named here, by UniProt entry; tags and fusion partners are left off. A change or cut given only in a name is not applied to a line headed by its entry.
UniProt P43121, whole entry, looked up: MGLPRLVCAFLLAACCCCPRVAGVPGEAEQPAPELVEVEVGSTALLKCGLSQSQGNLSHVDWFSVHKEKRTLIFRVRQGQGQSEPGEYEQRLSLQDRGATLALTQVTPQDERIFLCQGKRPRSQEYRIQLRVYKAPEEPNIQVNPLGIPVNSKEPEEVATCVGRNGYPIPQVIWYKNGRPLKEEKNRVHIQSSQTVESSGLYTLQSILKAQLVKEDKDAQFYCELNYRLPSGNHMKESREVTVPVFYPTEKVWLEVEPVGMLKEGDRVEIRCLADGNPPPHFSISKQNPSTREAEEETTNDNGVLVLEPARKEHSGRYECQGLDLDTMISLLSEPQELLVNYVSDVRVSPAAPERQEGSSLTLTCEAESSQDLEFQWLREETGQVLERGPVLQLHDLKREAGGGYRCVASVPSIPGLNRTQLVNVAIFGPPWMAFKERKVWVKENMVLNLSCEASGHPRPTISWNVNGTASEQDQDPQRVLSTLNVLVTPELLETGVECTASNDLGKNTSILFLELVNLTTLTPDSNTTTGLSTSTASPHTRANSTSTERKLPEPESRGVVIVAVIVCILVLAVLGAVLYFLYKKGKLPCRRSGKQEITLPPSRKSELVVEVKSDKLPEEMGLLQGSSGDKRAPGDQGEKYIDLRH
UniProt Q6N075: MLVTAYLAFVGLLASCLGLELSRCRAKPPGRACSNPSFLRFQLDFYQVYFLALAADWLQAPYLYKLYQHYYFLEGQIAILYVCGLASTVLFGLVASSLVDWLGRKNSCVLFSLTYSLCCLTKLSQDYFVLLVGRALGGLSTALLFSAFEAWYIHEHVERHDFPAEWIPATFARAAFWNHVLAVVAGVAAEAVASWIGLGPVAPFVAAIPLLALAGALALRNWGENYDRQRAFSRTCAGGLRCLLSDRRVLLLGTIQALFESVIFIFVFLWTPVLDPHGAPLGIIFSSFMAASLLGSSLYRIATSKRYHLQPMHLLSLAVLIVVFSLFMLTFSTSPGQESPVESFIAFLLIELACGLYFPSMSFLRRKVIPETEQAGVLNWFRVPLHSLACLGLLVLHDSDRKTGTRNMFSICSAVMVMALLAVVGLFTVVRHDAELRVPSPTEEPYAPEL
UniProt Q15648, whole entry, looked up: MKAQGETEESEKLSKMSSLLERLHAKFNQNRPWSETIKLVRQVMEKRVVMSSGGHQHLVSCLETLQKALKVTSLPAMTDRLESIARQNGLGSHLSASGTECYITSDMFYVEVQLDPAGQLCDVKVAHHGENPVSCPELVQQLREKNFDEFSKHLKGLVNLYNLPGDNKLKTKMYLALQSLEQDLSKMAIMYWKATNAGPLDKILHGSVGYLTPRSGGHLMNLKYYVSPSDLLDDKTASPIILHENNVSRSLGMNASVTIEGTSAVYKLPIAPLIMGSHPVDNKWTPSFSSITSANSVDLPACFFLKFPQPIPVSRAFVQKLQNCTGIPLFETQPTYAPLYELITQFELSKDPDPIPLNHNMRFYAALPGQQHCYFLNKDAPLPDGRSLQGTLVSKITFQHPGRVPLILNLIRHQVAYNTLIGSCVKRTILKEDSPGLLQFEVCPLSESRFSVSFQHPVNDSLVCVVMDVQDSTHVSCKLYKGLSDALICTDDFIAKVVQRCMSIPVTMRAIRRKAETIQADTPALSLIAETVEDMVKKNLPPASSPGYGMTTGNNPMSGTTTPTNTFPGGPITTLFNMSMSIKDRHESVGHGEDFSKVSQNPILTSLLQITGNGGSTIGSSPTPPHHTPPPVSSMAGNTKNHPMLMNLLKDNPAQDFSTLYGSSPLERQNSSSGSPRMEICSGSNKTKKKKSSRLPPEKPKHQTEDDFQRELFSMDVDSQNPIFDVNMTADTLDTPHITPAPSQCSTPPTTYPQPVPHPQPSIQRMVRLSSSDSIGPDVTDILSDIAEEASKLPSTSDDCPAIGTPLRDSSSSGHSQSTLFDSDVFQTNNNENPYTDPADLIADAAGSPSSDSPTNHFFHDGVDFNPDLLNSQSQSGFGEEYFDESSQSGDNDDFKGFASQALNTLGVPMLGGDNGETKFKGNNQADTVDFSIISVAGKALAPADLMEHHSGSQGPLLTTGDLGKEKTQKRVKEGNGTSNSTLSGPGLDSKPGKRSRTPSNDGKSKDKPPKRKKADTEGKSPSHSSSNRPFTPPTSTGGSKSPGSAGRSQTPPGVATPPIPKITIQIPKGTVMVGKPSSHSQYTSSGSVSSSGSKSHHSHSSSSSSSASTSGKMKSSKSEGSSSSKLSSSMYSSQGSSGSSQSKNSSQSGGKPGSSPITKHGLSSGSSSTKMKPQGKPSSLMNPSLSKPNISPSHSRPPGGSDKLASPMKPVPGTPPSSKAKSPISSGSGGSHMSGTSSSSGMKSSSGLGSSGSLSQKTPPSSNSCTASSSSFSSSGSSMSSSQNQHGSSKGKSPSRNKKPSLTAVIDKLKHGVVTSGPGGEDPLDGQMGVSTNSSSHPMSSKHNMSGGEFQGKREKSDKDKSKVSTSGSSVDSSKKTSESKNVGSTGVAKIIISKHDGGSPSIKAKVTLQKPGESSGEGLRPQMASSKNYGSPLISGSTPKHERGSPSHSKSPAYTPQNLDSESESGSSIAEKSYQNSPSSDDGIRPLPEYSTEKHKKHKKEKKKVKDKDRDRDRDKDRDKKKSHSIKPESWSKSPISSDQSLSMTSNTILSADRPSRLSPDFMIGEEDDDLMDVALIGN
UniProt P40925: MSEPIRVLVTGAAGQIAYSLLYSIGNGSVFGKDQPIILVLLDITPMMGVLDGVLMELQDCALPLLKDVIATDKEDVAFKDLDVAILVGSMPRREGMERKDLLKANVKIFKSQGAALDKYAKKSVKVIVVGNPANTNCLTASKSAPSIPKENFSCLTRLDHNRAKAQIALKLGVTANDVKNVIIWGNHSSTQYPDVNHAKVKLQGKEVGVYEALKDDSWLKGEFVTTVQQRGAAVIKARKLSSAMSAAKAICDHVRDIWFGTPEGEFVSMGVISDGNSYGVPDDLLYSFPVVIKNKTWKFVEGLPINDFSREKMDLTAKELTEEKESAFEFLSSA
UniProt Q7Z434: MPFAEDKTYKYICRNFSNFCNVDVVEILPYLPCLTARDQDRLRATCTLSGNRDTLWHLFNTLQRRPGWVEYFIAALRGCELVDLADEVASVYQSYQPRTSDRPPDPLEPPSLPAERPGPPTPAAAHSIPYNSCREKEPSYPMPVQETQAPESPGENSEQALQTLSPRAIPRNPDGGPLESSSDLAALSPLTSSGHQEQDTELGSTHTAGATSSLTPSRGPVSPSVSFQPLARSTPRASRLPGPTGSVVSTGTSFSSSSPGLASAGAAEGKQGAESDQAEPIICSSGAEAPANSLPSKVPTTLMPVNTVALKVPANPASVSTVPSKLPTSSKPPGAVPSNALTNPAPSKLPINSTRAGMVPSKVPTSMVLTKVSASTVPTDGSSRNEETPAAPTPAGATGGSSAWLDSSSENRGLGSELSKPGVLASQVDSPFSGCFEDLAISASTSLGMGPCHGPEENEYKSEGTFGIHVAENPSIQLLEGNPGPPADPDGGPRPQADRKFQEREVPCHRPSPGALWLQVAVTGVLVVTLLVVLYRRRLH
UniProt Q96IZ6: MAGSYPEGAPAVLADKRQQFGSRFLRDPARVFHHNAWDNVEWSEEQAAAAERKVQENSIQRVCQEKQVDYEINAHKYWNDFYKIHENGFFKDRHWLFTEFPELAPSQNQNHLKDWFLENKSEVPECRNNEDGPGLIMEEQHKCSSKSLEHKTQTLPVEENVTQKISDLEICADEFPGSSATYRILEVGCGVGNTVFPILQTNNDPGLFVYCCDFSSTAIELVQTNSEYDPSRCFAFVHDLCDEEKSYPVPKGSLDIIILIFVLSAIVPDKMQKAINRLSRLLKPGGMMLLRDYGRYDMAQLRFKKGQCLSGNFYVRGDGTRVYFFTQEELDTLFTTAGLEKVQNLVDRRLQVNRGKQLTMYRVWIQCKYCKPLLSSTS
UniProt Q16626: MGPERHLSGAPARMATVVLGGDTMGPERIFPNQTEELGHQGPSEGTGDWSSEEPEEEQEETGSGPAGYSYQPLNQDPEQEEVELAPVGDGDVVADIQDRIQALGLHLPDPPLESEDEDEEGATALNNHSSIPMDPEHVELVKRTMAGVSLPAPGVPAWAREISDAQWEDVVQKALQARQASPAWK
UniProt O95568: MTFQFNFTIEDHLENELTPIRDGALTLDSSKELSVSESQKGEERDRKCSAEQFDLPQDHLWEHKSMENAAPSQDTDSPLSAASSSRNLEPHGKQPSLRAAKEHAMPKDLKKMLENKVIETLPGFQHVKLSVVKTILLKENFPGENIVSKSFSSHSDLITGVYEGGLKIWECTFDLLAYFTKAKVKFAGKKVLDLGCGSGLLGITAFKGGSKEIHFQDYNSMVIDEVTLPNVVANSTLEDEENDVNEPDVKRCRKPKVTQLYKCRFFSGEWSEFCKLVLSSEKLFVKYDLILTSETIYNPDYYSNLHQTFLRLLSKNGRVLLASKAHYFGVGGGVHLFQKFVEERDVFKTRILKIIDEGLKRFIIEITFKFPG
UniProt Q8NI22: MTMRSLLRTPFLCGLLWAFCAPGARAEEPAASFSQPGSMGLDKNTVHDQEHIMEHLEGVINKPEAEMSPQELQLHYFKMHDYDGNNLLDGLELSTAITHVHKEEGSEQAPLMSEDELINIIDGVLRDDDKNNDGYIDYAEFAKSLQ
UniProt Q08431: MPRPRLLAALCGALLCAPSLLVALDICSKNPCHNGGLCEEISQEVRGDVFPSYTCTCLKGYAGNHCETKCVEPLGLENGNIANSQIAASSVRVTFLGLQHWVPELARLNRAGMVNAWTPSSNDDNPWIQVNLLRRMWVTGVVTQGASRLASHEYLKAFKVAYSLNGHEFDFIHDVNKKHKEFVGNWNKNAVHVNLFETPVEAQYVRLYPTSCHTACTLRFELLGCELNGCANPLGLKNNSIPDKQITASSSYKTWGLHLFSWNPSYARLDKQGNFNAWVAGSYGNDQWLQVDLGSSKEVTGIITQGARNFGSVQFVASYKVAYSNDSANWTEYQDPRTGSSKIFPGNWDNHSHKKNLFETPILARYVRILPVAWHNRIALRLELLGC
UniProt Q9H944: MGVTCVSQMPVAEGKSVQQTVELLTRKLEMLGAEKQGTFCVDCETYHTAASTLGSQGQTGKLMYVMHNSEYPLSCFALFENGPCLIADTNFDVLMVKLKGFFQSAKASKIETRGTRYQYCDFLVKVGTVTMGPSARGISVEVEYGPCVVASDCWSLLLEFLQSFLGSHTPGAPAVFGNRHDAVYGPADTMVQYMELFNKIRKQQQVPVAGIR
UniProt Q9NS73: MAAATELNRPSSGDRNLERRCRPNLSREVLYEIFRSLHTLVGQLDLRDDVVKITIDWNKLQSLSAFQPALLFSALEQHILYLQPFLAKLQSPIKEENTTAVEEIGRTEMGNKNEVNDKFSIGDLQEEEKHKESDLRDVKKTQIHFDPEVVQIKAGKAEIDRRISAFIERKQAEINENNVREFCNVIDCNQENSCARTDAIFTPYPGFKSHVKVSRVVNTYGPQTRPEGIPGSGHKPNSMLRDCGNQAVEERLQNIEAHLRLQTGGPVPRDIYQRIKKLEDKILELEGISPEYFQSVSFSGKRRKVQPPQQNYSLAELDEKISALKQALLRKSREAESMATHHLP
UniProt Q14814: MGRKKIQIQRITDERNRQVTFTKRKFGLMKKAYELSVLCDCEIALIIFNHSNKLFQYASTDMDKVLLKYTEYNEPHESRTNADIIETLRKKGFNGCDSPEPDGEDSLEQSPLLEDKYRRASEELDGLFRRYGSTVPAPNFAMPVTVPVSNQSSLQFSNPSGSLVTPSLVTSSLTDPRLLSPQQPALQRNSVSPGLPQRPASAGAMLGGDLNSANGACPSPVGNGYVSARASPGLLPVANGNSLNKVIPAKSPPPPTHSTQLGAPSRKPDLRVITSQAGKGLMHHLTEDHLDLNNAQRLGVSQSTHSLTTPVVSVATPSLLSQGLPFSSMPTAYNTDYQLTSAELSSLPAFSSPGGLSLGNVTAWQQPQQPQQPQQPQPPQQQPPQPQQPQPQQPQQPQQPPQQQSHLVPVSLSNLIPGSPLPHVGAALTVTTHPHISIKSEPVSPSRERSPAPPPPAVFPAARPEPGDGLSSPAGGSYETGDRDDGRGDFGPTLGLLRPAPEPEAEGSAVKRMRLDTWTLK

Assays:
Test in all cases: log2 fold change, soluble protein after heating vs DMSO (PISA); higher = thermal stabilisation; K562 lysate, 10 uM; active = over 0.2 and 3.5 SD of the protein, either way, in both replicates (recomputed)
[1] = compound: CS(=O)(=O)CCNCc1ccc(-c2ccc3ncnc(Nc4ccc(OCc5cccc(F)c5)c(Cl)c4)c3c2)o1 [lapatinib]
Method in brief: (§1)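 To prepare the extract, K562 pellets were dounce-homogenised in PBS pH 7.4 with 1 mM MgCl2, giving crude material at 1 mg/mL protein. This was treated with 10 μM compound for 30 min, then heated in aliquots for 3 min over 48°C-58°C before pooling and addition of NP-40 to 0.5% at 4°C. Centrifugation at 21,000xg for 90 min left soluble protein in the supernatant, which TMTpro 16plex LC-MS/MS quantified with equalised channel sums. Results are log-two fold changes in thermal stability compared with solvent controls, from duplicates.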

[2] = compound: CS(=O)(=O)N1CCN(Cc2cc3nc(-c4cccc5[nH]ncc45)nc(N4CCOCC4)c3s2)CC1 [pictilisib]
Method in brief: as §1

[3] = compound: C[C@@H](Oc1cc(-c2cnn(C3CCNCC3)c2)cnc1N)c1c(Cl)ccc(F)c1Cl [crizotinib]
Method in brief: as §1

[4] = compound: C[C@H](C1=CC=C(C=C1)C(=O)NC2=C3C=CNC3=NC=C2)N
Method in brief: as §1

[5] = compound: C[C@H](Nc1ncnc2nc[nH]c12)c1cc2cccc(Cl)c2c(=O)n1-c1ccccc1 [duvelisib]
Method in brief: as §1

[6] = compound: Cc1cc(Nc2cc(CN3CCOCC3)c3nc(C)c(Cc4ccc(Cl)cc4F)n3n2)n[nH]1 [gandotinib]
Method in brief: as §1

[7] = compound: Cc1cc(Nc2cc(N3CCN(C)CC3)nc(Sc3ccc(NC(=O)C4CC4)cc3)n2)n[nH]1 [tozasertib]
Method in brief: as §1

[8] = compound: Cc1ccc(-n2nc(C(C)(C)C)cc2NC(=O)Nc2ccc(OCCN3CCOCC3)c3ccccc23)cc1 [doramapimod]
Method in brief: as §1

[9] = compound: Cc1ccc(NC(=O)c2ccc(CN3CC[C@H](N(C)C)C3)c(C(F)(F)F)c2)cc1Nc1nccc(-c2cncnc2)n1 [bafetinib]
Method in brief: as §1

[10] = compound: Cc1cccc(CC(=O)N2CCc3c2ccc(-c2cn(C)c4ncnc(N)c24)c3F)n1
Method in brief: as §1

Measured: log2 fold change

MCAM (UniProt P43121)
inactive: [1] -0.007 | [2] -0.023 | [3] 0.024 | [4] -0.054 | [5] 0.009 | [6] 0.066 | [7] -0.05 | [8] -0.044 | [9] -0.017 | [10] -0.003

MFSD5 isoform 2 (UniProt Q6N075)
inactive: [1] 0.079 | [2] -0.09 | [3] 0.006 | [4] -0.067 | [5] -0.036 | [6] 0.057 | [7] 0.007 | [8] -0.017 | [9] -0.067 | [10] 0.012

MED1 (UniProt Q15648)
inactive: [1] 0.024 | [2] -0.028 | [3] -0.023 | [4] 0.018 | [5] 0 | [6] 0.007 | [7] -0.008 | [8] -0.01 | [9] -0.046 | [10] 0.045

MDH1 isoform 3 (UniProt P40925)
inactive: [1] -0.024 | [2] 0.016 | [3] 0.027 | [4] -0.021 | [5] -0.011 | [6] 0 | [7] 0.002 | [8] -0.023 | [9] 0.085 | [10] -0.061

MAVS (UniProt Q7Z434)
inactive: [1] 0.01 | [2] -0.019 | [3] 0 | [4] -0.037 | [5] 0.022 | [6] 0.029 | [7] 0.037 | [8] -0.027 | [9] -0.009 | [10] 0.023

METTL2A (UniProt Q96IZ6)
inactive: [1] -0.001 | [2] -0.049 | [3] -0.026 | [4] 0.056 | [5] 0.052 | [6] -0.065 | [7] 0.029 | [8] 0.035 | [9] -0.017 | [10] -0.065

MEA1 (UniProt Q16626)
inactive: [1] 0.103 | [2] -0.183 | [3] -0.025 | [4] -0.013 | [5] 0.089 | [6] -0.018 | [7] 0.046 | [8] 0.018 | [9] 0.154 | [10] -0.004

METTL18 (UniProt O95568)
inactive: [1] -0.013 | [2] -0.007 | [3] -0.058 | [4] -0.054 | [5] 0.013 | [6] 0.094 | [7] -0.036 | [8] 0.058 | [9] -0.05 | [10] 0.085

MED12 isoform 2 (UniProt Q93074)
inactive: [1] 0.009 | [2] 0.017 | [3] -0.017 | [4] 0.002 | [5] 0 | [6] -0.072 | [7] -0.033 | [8] 0.011 | [9] -0.012 | [10] -0.011

2 neighbouring entries out of the list so far, quoted:
METTL18 (UniProt O95568)
inactive: [1] -0.013 | [2] -0.007 | [3] -0.058 | [4] -0.054 | [5] 0.013 | [6] 0.094 | [7] -0.036 | [8] 0.058 | [9] -0.05 | [10] 0.085

MED12 isoform 2 (UniProt Q93074)
inactive: [1] 0.009 | [2] 0.017 | [3] -0.017 | [4] 0.002 | [5] 0 | [6] -0.072 | [7] -0.033 | [8] 0.011 | [9] -0.012 | [10] -0.011

Later entries.

METTL26 (UniProt Q96S19)
inactive: [1] 0.031 | [2] -0.136 | [3] -0.159 | [4] 0.034 | [5] 0.045 | [6] -0.086 | [7] -0.011 | [8] 0.092 | [9] -0.131 | [10] 0.086

MCFD2 isoform 2 (UniProt Q8NI22)
inactive: [1] -0.024

MFGE8 (UniProt Q08431)
inactive: [1] -0.061 | [2] 0.013 | [3] 0.016 | [4] -0.087 | [5] -0.041 | [6] -0.029 | [7] 0.007 | [8] 0.021 | [9] 0.034 | [10] 0.038

MED20 (UniProt Q9H944)
inactive: [1] 0.085 | [2] -0.049 | [3] -0.009 | [4] -0.11 | [5] -0.025 | [6] 0.136 | [7] 0.078 | [8] -0.047 | [9] -0.099 | [10] 0.123

MBIP (UniProt Q9NS73)
inactive: [1] -0.037 | [2] -0.136 | [3] 0.102 | [4] -0.101 | [5] 0.052 | [6] -0.032 | [7] 0.194 | [8] -0.024 | [9] -0.027 | [10] 0.113

MEF2D (UniProt Q14814)
inactive: [1] 0.008 | [2] -0.001 | [3] 0.062 | [4] -0.006 | [5] -0.068 | [6] 0.055 | [7] -0.016 | [8] -0.041 | [9] 0.053 | [10] 0.016
